This is an account of results in the supplement of paper PMC12819154, “High-throughput peptide-centric local stability assay extends protein–ligand identification to membrane proteins, tissues and bacteria” (Nature Structural & Molecular Biology, 2025).

Sequences of proteins named here, by UniProt entry; tags and fusion partners are left off. A change or cut given only in a name is not applied to a line headed by its entry.
UniProt Q96A00: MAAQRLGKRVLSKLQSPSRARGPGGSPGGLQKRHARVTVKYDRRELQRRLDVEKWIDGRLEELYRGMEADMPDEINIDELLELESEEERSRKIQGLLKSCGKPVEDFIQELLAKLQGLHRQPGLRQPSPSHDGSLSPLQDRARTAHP
UniProt Q93073: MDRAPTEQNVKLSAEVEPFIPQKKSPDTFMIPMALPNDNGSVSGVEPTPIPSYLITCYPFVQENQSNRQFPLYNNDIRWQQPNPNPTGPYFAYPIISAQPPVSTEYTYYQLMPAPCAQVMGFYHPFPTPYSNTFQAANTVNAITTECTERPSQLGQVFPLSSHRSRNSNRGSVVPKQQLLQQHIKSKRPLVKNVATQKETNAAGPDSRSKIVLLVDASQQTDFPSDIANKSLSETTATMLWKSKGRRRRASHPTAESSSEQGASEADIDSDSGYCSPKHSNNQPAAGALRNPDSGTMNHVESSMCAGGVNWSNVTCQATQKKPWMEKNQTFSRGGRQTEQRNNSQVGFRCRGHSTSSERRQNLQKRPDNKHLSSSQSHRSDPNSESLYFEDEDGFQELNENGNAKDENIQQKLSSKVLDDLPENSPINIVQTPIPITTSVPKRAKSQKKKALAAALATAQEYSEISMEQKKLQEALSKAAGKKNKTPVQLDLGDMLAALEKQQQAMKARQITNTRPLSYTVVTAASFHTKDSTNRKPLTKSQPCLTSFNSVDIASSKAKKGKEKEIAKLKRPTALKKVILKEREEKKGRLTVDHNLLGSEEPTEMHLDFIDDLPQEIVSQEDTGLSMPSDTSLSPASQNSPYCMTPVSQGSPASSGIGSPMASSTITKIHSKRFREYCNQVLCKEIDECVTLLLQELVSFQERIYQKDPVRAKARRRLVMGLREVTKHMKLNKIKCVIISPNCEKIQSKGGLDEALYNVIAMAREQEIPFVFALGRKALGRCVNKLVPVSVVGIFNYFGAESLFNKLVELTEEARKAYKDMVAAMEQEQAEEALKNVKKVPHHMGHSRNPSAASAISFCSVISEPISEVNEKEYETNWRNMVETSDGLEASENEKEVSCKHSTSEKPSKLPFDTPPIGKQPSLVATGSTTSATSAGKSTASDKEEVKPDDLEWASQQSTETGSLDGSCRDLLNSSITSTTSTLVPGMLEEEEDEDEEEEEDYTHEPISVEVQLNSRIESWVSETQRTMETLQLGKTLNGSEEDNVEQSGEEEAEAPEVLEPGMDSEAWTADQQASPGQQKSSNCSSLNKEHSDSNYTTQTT
UniProt Q96AZ6: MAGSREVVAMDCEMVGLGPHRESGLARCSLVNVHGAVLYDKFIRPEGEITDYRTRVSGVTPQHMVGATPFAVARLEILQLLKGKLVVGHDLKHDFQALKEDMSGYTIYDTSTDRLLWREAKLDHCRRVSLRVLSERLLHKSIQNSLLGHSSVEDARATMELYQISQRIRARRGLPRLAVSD
UniProt Q93096: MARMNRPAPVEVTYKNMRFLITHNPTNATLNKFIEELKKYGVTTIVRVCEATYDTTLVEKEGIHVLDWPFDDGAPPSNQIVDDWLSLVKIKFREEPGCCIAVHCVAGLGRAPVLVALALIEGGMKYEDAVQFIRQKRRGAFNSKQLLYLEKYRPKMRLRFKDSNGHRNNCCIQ
UniProt Q96EN8: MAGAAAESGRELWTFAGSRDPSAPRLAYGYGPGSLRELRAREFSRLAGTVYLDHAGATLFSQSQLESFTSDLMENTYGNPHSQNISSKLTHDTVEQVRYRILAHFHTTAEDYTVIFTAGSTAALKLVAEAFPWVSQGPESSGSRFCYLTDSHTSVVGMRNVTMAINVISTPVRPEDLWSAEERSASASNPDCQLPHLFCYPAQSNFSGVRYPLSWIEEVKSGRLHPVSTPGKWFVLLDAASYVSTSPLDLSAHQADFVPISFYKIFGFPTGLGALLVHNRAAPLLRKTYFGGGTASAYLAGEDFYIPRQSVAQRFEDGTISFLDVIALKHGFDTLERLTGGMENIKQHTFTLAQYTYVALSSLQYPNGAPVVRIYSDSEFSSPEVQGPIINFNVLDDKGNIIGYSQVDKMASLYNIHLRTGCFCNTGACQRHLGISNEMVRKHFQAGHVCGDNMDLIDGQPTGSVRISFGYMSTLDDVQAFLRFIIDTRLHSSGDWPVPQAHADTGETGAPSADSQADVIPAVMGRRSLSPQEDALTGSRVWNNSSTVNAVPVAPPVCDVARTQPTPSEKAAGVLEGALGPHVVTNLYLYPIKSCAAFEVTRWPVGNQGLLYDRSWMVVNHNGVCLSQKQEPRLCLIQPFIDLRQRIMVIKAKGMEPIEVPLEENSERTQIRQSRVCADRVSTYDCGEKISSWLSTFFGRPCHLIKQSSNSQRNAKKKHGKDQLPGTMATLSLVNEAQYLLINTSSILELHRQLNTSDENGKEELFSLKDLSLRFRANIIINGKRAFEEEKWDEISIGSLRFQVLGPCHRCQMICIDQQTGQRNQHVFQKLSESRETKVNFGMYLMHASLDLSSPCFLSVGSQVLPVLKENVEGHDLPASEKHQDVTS
UniProt Q96G46: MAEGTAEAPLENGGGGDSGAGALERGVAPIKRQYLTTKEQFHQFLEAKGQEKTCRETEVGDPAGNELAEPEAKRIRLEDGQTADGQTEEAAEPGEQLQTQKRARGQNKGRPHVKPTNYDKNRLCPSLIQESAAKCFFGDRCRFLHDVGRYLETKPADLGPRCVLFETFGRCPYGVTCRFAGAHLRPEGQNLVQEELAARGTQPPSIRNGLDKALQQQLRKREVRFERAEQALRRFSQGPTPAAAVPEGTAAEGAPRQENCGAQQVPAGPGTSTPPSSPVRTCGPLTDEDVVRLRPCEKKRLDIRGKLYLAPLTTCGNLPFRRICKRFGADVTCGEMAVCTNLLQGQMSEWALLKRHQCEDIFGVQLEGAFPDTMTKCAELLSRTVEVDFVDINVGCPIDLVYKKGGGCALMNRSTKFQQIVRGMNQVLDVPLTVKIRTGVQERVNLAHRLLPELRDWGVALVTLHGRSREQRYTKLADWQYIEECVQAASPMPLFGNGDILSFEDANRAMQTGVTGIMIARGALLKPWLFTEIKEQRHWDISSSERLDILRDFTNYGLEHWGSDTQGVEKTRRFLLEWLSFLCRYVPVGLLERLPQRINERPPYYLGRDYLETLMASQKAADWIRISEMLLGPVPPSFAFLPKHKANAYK
UniProt Q96F07, whole entry: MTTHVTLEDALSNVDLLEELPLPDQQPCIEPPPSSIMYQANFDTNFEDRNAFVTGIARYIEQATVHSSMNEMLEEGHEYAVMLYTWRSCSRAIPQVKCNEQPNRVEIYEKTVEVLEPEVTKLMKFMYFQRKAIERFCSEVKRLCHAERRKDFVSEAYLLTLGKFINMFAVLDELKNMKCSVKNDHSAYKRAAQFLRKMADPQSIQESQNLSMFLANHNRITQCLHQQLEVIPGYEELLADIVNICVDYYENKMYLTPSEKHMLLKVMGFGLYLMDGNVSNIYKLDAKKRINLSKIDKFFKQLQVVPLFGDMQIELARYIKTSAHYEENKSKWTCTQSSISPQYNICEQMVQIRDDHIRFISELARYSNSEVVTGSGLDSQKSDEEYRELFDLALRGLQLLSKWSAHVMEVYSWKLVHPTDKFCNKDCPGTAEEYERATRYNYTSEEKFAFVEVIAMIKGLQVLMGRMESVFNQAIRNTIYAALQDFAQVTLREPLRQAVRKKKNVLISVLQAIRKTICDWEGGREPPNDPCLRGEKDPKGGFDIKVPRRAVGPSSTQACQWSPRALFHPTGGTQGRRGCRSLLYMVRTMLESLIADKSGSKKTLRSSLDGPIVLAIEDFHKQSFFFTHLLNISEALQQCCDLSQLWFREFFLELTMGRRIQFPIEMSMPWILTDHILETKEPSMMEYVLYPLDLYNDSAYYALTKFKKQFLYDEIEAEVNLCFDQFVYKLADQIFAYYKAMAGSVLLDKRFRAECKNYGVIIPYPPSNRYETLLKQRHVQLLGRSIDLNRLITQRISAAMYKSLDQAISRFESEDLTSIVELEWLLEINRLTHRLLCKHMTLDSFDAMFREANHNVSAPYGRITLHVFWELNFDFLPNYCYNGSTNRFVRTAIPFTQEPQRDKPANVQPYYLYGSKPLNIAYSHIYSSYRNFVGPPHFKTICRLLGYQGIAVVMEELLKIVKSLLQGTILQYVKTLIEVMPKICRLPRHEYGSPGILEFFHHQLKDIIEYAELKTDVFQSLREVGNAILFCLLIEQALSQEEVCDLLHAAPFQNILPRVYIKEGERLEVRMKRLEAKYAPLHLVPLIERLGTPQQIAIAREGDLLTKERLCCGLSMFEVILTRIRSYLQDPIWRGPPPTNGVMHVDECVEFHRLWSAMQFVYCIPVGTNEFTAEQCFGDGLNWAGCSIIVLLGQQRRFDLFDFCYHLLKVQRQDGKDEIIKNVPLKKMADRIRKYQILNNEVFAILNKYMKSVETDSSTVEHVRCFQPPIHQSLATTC
UniProt Q96D46: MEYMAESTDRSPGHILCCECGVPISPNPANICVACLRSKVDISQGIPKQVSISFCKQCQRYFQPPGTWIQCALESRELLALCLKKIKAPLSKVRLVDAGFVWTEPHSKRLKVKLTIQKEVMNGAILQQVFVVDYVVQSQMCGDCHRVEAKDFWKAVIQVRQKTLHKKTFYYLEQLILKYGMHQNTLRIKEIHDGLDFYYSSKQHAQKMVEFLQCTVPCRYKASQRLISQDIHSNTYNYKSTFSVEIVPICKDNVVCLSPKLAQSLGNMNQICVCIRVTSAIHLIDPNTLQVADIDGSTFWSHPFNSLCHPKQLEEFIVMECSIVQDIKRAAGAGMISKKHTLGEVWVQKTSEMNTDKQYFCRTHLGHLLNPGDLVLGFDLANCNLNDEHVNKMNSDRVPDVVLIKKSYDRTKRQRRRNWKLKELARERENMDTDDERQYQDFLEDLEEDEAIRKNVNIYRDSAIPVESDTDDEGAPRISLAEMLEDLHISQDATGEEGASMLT
UniProt Q96B96: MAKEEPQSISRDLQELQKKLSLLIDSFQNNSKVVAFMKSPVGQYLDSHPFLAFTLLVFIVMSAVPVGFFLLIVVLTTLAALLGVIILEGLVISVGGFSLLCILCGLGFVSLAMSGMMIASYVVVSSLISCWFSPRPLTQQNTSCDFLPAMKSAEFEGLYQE
UniProt Q96AE4: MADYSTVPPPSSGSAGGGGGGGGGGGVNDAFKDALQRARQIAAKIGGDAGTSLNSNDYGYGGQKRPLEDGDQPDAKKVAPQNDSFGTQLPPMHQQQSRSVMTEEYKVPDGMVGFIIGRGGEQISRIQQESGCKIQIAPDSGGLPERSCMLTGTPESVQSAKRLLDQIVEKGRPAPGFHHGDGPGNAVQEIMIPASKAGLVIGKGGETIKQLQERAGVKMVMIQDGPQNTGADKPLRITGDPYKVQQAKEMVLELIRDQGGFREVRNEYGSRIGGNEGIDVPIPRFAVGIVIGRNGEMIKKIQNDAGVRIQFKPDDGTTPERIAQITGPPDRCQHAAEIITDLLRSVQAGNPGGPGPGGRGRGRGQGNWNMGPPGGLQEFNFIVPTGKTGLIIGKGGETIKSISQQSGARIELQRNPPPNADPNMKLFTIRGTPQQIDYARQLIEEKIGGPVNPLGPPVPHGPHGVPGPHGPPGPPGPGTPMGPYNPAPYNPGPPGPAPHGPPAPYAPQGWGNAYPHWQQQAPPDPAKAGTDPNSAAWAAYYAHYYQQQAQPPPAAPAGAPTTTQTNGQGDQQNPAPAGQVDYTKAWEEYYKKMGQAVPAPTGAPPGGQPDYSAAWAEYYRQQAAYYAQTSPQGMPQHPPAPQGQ
UniProt Q96G03: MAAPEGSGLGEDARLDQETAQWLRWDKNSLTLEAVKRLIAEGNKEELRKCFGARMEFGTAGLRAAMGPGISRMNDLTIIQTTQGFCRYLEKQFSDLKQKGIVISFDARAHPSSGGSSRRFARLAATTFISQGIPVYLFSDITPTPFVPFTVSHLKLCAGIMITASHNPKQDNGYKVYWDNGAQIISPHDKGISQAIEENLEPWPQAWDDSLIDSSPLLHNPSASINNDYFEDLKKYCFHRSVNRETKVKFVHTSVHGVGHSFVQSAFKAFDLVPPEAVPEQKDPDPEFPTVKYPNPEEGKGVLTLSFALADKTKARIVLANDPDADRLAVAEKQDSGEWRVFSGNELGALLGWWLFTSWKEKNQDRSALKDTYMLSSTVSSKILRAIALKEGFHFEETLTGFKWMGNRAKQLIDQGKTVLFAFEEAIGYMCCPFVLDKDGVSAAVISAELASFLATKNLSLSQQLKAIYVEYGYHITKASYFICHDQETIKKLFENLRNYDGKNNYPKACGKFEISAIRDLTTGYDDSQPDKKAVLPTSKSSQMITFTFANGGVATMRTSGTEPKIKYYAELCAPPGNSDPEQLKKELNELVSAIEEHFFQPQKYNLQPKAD
UniProt Q96CF2: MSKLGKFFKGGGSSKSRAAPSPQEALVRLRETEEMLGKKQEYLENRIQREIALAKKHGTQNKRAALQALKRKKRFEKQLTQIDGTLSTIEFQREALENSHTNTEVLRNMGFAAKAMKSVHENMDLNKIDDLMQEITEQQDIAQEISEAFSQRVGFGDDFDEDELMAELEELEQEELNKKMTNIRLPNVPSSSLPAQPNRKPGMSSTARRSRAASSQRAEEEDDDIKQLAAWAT

The other results are listed elsewhere or left out. Most entries show no effect beyond the scatter of the controls.

Compound in the assay: CN[C@@H]1C[C@H]2O[C@@](C)([C@@H]1OC)n1c3ccccc3c3c4c(c5c6ccccc6n2c5c31)C(=O)NC4 [staurosporine]
Briefly: log2 fold change of tryptic peptide abundance, ligand vs vehicle (limited proteolysis) (log2 ratio); higher = more trypsin-susceptible (destabilized). Conditions: ligand concentration: 20 uM; sample: K562 cleared lysate; digestion: 4 min, 22 C (HT-PELSA RT4min, Orbitrap Astral).
Consider “CHCHD1 (peptide sequence: PNKPLILANR, peptide start residue: 23) (UniProt Q96BP2)”, for which the log2 fold change is 0.227. As to “PBXIP1 (peptide sequence: MDPESER, peptide start residue: 30) (UniProt Q96AQ6)”, the log2 fold change worked out at 0.17. Regarding “PPP1R14A (peptide sequence: GPGGSPGGLQKR, peptide start residue: 22) (UniProt Q96A00)”, the log2 fold change was 0.646.

Take “HDAC10 (peptide sequence: MLQCHPHLVA, peptide start residue: 660) (UniProt Q969S8)”: the log2 fold change was 0.471.

Take “SECISBP2L (peptide sequence: GGLDEALYNVIAMAR, peptide start residue: 750) (UniProt Q93073)”: the log2 fold change is -0.525.

On to “ISG20 (peptide sequence: FIRPEGEITDYR, peptide start residue: 42) (UniProt Q96AZ6)”, for which the log2 fold change is -0.342.

Consider “CDCA5 (peptide sequence: RIVAHAVEVPAVQSPR, peptide start residue: 62) (UniProt Q96FF9)”, for which the log2 fold change is -0.328.

As for “THAP11 (peptide sequence: ALHFYTFPK, peptide start residue: 20) (UniProt Q96EK4)”, the log2 fold change worked out at 0.213. In the case of “ENTR1 (peptide sequence: LKQEISLLQAQVSNFQR, peptide start residue: 348) (UniProt Q96C92)”, the log2 fold change came out at 0.24. Turning to “UniProt Q96A08 (peptide sequence: ESYSIYIYK, peptide start residue: 37)”, the log2 fold change was -0.205.

Regarding “UniProt Q93096 (peptide sequence: FLITHNPTNATLNK, peptide start residue: 16)”, the log2 fold change was determined as 0.283. As for “MOCOS (peptide sequence: CQMICIDQQTGQR, peptide start residue: 811) (UniProt Q96EN8)”, the log2 fold change came to 1.07. In the case of “ABCC2 (peptide sequence: KGEFAKNLK, peptide start residue: 852) (UniProt Q92887)” it was 0.222. As for “TCEAL4 (peptide sequence: KLENEGKTENK, peptide start residue: 40) (UniProt Q96EI5)”, the figure is 0.62. Regarding “DUS3L (peptide sequence: YVPVGLLER, peptide start residue: 585) (UniProt Q96G46)”, the log2 fold change turned out to be 0.152. For the target “REPS1 (peptide sequence: LVAVAQSGFPLR, peptide start residue: 75) (UniProt Q96D71)”, the log2 fold change amounted to 0.425.

In the case of “CYFIP2 (peptide sequence: GLQVLMGR, peptide start residue: 460) (UniProt Q96F07)”, the log2 fold change came to 0.337. Regarding “RNF166 (peptide sequence: SLVASAQQR, peptide start residue: 6) (UniProt Q96A37)”, the log2 fold change was found to be 0.115.

Consider “UniProt Q96E29 (peptide sequence: DYVDHSETLQK, peptide start residue: 148)”, for which the log2 fold change is -0.368. On to “NRBF2 (peptide sequence: YEEAISCHK, peptide start residue: 27) (UniProt Q96F24)”, for which the log2 fold change was determined as 0.491. As for “SLC10A4 (peptide sequence: KLKEEEMADTSYGTVK, peptide start residue: 408) (UniProt Q96EP9)”, the figure is -0.249; as for “UniProt Q96G04 (peptide sequence: CFLSELIK, peptide start residue: 72)”, 0.219. Regarding “NMD3 (peptide sequence: ELLALCLK, peptide start residue: 77) (UniProt Q96D46)”, the log2 fold change was 0.223.

Take “TMEM159 (peptide sequence: AKEEPQSISR, peptide start residue: 2) (UniProt Q96B96)”: the log2 fold change was -0.0538.

For “FUBP1 (peptide sequence: GTPQQIDYAR, peptide start residue: 431) (UniProt Q96AE4)”, the log2 fold change amounted to 0.139. Take “PGM2 (peptide sequence: IVLANDPDADRLAVAEK, peptide start residue: 317) (UniProt Q96G03)”: the log2 fold change was -0.315. Regarding “CHMP4C (peptide sequence: SVHENMDLNK, peptide start residue: 118) (UniProt Q96CF2)”, the log2 fold change came out at 0.625.
